{"sequences": {"note": "Chains of the proteins cited; added tags and fusions are not shown. Lines headed by an entry give the natural chain unless they say otherwise; changes in a name come on top.", "UniProt P33981, whole entry": "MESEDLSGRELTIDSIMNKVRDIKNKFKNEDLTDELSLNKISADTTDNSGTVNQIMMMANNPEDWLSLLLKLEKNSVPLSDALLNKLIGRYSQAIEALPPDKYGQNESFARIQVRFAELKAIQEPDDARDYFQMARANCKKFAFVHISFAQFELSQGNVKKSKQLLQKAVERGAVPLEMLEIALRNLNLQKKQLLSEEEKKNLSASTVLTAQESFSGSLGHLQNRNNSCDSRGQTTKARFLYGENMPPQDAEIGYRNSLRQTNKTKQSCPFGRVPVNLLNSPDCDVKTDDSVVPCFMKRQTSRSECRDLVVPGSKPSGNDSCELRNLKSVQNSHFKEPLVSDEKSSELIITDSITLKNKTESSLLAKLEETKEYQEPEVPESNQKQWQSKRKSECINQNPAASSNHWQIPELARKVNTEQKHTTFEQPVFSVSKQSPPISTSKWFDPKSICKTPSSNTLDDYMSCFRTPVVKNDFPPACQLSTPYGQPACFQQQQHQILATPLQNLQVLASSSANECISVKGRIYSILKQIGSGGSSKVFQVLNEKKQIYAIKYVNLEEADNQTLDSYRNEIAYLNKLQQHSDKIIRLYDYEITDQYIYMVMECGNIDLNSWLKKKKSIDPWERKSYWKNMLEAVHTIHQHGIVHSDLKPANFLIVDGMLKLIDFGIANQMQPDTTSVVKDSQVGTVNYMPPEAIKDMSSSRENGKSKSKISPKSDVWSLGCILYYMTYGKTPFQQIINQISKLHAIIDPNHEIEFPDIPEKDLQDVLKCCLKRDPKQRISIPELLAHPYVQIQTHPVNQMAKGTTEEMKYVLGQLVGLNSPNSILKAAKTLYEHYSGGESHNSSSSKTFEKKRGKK"}, "source": "patent US9388140B2", "about": "“Substituted benzimidazoles” (priority 2011, dated 2016)", "target": "human kinase Mps-1 (Homo sapiens (Human), UniProt P33981)", "assay": "Mps-1 kinase assay (TR-FRET)", "type": "biochemical", "conditions": "read-out: Mps1 IC50; N-terminally GST-tagged human full length recombinant Mps-1; 10 μM ATP; 1 μM biotinylated peptide substrate", "note": "pIC50: −log10 of the molar value. The match of structure and compound is tentative.", "data": [{"smiles": "COc1ccc(Oc2cc(NCC3CCOCC3)c3ncn(-c4ccc(C(=O)NC5CC5)c(C)c4)c3c2)c(F)c1", "values": [{"measurement": "pIC50", "result": 9.40}]}]}
